Our source for the binding values is publication PMC5222566, “The Ciliopathy-Associated Cep104 Protein Interacts with Tubulin and Nek1 Kinase” (Structure(London, England:1993), 2017).

Chains of the proteins cited; added tags and fusions are not shown. Residues count along the entry.
UniProt O43303, residues 906-936: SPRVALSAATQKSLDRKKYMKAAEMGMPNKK

This experiment deals with T1, GST-Cep104^746-875 (ZNF) (human) (UniProt O60308).
T1 sequence: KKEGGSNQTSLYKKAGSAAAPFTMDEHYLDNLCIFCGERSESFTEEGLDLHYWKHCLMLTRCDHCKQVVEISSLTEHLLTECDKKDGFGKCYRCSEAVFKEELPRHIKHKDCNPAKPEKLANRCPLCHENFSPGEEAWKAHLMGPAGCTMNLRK
Kind of experiment: pull-down; in vitro: 30 ug GST-Cep104^746-875 on Glutathione Sepharose 4B; Nek1^451-677 (26 uM), CP110^906-936 (66 uM), D. rerio STIL^404-448 (127 uM) or binary combinations, 1 h 4°C; PBS, 0.1% IGEPAL CA-630, 1 mM DTT; Coomassie gel; both purified.

These are yes or no findings as the source states them, for the method shown. Some entries that bind do so weakly or less than the wild type. Sequences can lack the tags named with a protein.

As for “CP110^906-936 (from UniProt O43303 906-936) (peptide)”, the binding result is listed as “binds”.
